Data source: PubChem BioAssay AID504774 (Drosophila RNAi Screening Center, 2011)
The deposit covers about 23,000 reagents; shown is an unselected part of those with a known target gene and a result. 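Values are quantile-normalised luminescence on an arbitrary scale; higher means more cells surviving MMS.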 Names joined by + are all predicted targets of the reagent.

Purpose: 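Knock-downs that shift viability of MMS-exposed cells relative to untreated ones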 (primary screen)
System: Drosophila Kc167 cells
Reagent: long dsRNA against Drosophila genes, about 0.25 µg dsRNA per well
Time to read-out: about 6 days: 3 days knock-down, then 3 days with or without MMS
Treatment: methyl methanesulphonate 0.004% (w/v) for 3 days after knock-down
Detection: 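ATP-dependent luminescence as a measure of live cells in MMS-exposed wells, quantile normalised within each plate, with replicate values also given as a mean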
Direction: mean viability with MMS and viability with MMS: higher = more surviving cells after MMS

The first 7 records, ahead of the listing:
no.	gene	amplicon	mean viability with MMS	viability with MMS, replicate 1	viability with MMS, replicate 2
1	CG16879 (retired record)	DRSC01918	3.62e6	4.01e6	4.01e6
2	CG16879 (retired record)	DRSC22849	3.43e6	3.99e6	3.86e6
3	Bx	DRSC19350	3.19e6	3.55e6	3.56e6
4	Bx	DRSC23048	3.10e6	3.51e6	3.37e6
5	Adk2	DRSC09827	3.49e6	3.94e6	3.96e6
6	atos	DRSC07318	3.51e6	4.02e6	4.00e6
7	CG4866	DRSC06899	3.64e6	4.17e6	4.05e6

Main list, from the first entry:
no.	gene	amplicon	mean viability with MMS	viability with MMS, replicate 1	viability with MMS, replicate 2
1	CG16879 (retired record)	DRSC01918	3.62e6	4.01e6	4.01e6
2	CG16879 (retired record)	DRSC22849	3.43e6	3.99e6	3.86e6
3	Bx	DRSC19350	3.19e6	3.55e6	3.56e6
4	Bx	DRSC23048	3.10e6	3.51e6	3.37e6
5	Adk2	DRSC09827	3.49e6	3.94e6	3.96e6
6	atos	DRSC07318	3.51e6	4.02e6	4.00e6
7	CG4866	DRSC06899	3.64e6	4.17e6	4.05e6
8	Nplp3	DRSC09944	3.54e6	3.91e6	4.10e6
9	CG17982	DRSC18143	3.57e6	4.13e6	4.00e6
10	Xxylt	DRSC04107	3.29e6	3.89e6	3.48e6
11	Bet1	DRSC10088	3.42e6	3.88e6	3.84e6
12	CG15710	DRSC06581	3.44e6	3.82e6	3.94e6
13	CG18622	DRSC15360	3.64e6	4.13e6	4.14e6
14	CG31206	DRSC13388	3.59e6	4.06e6	4.08e6
15	CG15155	DRSC02456	3.45e6	3.87e6	3.96e6
16	CG31730	DRSC01308	3.48e6	3.99e6	3.90e6
17	CG10887	DRSC14277	3.64e6	4.02e6	4.00e6
18	CG34175	DRSC00424	3.67e6	4.12e6	4.14e6
19	CG6980	DRSC16162	3.52e6	3.92e6	4.08e6
20	OtopLa	DRSC17787	3.88e6	4.39e6	4.51e6
21	OtopLa	DRSC18133	3.72e6	4.19e6	4.25e6
22	OtopLa	DRSC23226	3.48e6	4.07e6	3.86e6
23	CG4653	DRSC19909	3.90e6	3.69e6	3.84e6
24	CG4653	DRSC22857	3.62e6	4.15e6	4.02e6
25	CG5388	DRSC15789	3.50e6	3.90e6	4.04e6
26	lectin-46Ca	DRSC06612	3.51e6	3.97e6	3.99e6
27	sif	DRSC08759	3.61e6	4.12e6	4.07e6
28	sif	DRSC11395	3.50e6	4.18e6	3.77e6
29	sif	DRSC22065	3.65e6	4.20e6	4.01e6
30	sif	DRSC22828	3.46e6	4.07e6	3.83e6
31	SCaMC	DRSC10293	3.35e6	3.85e6	3.81e6
32	SCaMC	DRSC10415	3.28e6	3.78e6	3.60e6
33	CG7768	DRSC10914	3.68e6	4.23e6	4.06e6
34	Sou	DRSC04356	3.35e6	3.79e6	3.75e6
35	fs(1)M3	DRSC18381	3.59e6	3.85e6	4.33e6
36	CG12769	DRSC06167	3.60e6	4.13e6	4.04e6
37	neur	DRSC17013	3.81e6	4.44e6	4.20e6
38	CG32379	DRSC10318	3.49e6	3.91e6	4.01e6
39	CG32413	DRSC21591	3.62e6	4.03e6	4.17e6
40	loaf	DRSC09130	3.56e6	4.03e6	4.04e6
41	mrt	DRSC15484	3.50e6	3.97e6	3.94e6
42	Pex5	DRSC18552	3.53e6	3.91e6	4.11e6
43	CG18598	DRSC15356	3.51e6	3.92e6	4.04e6
44	CG3323	DRSC18303	3.46e6	4.02e6	3.84e6
45	CG8051	DRSC20077	3.51e6	4.01e6	3.97e6
46	CG11858	DRSC14412	3.69e6	4.02e6	4.09e6
47	CG6790	DRSC16117	3.40e6	3.87e6	3.80e6
48	Drs	DRSC08657	3.61e6	4.13e6	4.02e6
49	Ccz1	DRSC08439	3.47e6	4.00e6	3.87e6
50	CG33299	DRSC01085	3.50e6	4.08e6	3.86e6
51	CG42525	DRSC08026	3.48e6	4.02e6	3.86e6
52	wech	DRSC06606	3.09e6	2.15e6	3.74e6
53	CG4301	DRSC19886	3.66e6	4.23e6	4.04e6
54	CG15747	DRSC19713	3.27e6	3.37e6	3.62e6
55	CG32277	DRSC08196	3.51e6	3.92e6	4.04e6
56	CG5623	DRSC15848	3.60e6	4.18e6	4.01e6
57	Smn	DRSC10223	3.40e6	3.75e6	3.94e6
58	CG43901	DRSC19397	3.43e6	3.94e6	3.85e6
59	CG43901	DRSC19652	2.94e6	3.69e6	3.62e6
60	Or88a	DRSC16770	3.32e6	3.73e6	3.78e6
61	CG5087	DRSC10479	3.41e6	3.86e6	3.86e6
62	CG7849	DRSC04895	3.45e6	4.01e6	3.80e6
63	Ciao1	DRSC06170	3.30e6	3.74e6	3.74e6
64	Cap-G	DRSC06652	3.51e6	3.86e6	3.95e6
65	Cap-G	DRSC06653	3.50e6	3.79e6	3.98e6
66	Cap-G	DRSC21805	2.97e6	3.68e6	3.68e6
67	CG11889 + CG11891	DRSC14426	3.65e6	4.14e6	4.13e6
68	CG11889 + CG11891	DRSC14427	3.49e6	3.98e6	3.90e6
69	CG12917	DRSC06231	3.70e6	4.13e6	4.14e6
70	Es2	DRSC18663	3.48e6	4.13e6	3.68e6
71	Vps52	DRSC03050	3.56e6	4.02e6	4.04e6
72	Mcm3	DRSC18679	3.55e6	4.06e6	3.82e6
73	CG15048 (retired record)	DRSC19624	3.22e6	3.56e6	3.61e6
74	CG32147	DRSC09346	3.60e6	4.18e6	3.98e6
75	CG6106	DRSC19971	3.51e6	3.98e6	3.98e6
76	CG18473	DRSC16381	3.46e6	3.88e6	4.00e6
77	CG14154	DRSC10156	3.46e6	3.98e6	3.87e6
78	Rh3	DRSC16822	3.73e6	4.13e6	4.25e6
79	CG12576	DRSC20621	3.52e6	3.99e6	4.01e6
80	CG6479	DRSC10647	3.45e6	3.90e6	3.89e6
81	CG31406	DRSC12777	3.47e6	3.93e6	3.94e6
82	pot	DRSC19850	3.59e6	4.14e6	4.20e6
83	CG6793	DRSC10714	3.67e6	4.04e6	4.23e6
84	His4:CG33883 + His4:CG33889 + His4:CG33899 + 20 more	DRSC21268	3.33e6	3.77e6	3.80e6
85	l(2)SH0834	DRSC02854	3.54e6	4.01e6	4.02e6
86	Poc1	DRSC09713	3.45e6	3.95e6	3.87e6
87	CG8349	DRSC03083	3.52e6	3.99e6	4.00e6
